The term AC50 denotes the midpoint of the concentration-response curve, whichever way the signal moves.

The structures appear in SMILES notation. This is one part of the list. The main result of the screen is listed elsewhere. These columns were measured beside it and carry no call. The list favours compounds with an active or inconclusive main result. Potencies come from curve fits of mixed quality, noted in brackets.

The results in this text go back to PubChem BioAssay AID493014 (National Center for Advancing Translational Sciences (NCATS), 2011).

This test in a line: qHTS Assay to Find Inhibitors of Chronic Active B-Cell Receptor Signaling. Conditions: ABC-DLBCL IkBa-CBG/CBR reporter, luminescence ratio (green luciferase fused to IkBa over red control in TMD8 lymphoma cells), 4 h. The method in brief: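 TMD8 human ABC-DLBCL cells with doxycycline-inducible IκBα–green luciferase fusion and unfused red luciferase, in 0.5% FBS medium; compounds up to 46 uM, 4 h at 37C. Green/red luminescence ratio, filter-overlap corrected, fitted to concentration-response curves.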
A general note: qHTS replaces the single test concentration by a dilution series.

Where [1] appears, read: measured here: CBR red luminescence, cell number.
The mark [2] stands for this setting: measured here: IkBa-CBG green luminescence.

For `Cc1ccc(NC(=O)CSc2ccc3c(c2)OCCO3)nc1`, the AC50 under setting [1] was 2.91 µM [falling, partial curve]. Regarding `COc1cc(NC(C)CCCN)c2ncccc2c1` (configuration not stated), the AC50 under setting [1] is 18.4 µM [falling, single point] and the AC50 under setting [2] was 20.6 µM [rising, partial curve, poor fit]. As for `COc1cc(CCC(=O)OCC(=O)Nc2ccc(C(N)=O)cc2)cc(OC)c1OC`, the AC50 under setting [1] is 22.4 µM [rising, single point]. `Cc1ccc(-n2nnc(-c3cccnc3Cl)n2)cc1`: the AC50 under setting [1] was 4.47 µM [rising, partial curve, poor fit].

For `O=C(CC1CCCC1)Nc1ccc2c(c1)CCC2`, under setting [1], the AC50 was 2.82 µM [rising, partial curve, poor fit].

Consider `CN1Cc2sc(NC(=S)NC(=O)c3ccccc3)c(C#N)c2CC1(C)C`, for which the AC50 under setting [1] is 35.5 µM [falling, single point]. With `Cc1ccc(NCN2C(=O)C3C4C=CC(C4)C3C2=O)cc1` (configuration not stated), the AC50 under setting [1] is 12.6 µM [rising, single point]. Regarding `COc1cc(C2Nc3ccc4ncccc4c3C3=C2C(=O)CC(C)(C)C3)cc(OC)c1O` (configuration not stated), the AC50 under setting [1] is 1.64 µM [rising, partial curve]. On the same count and under the same terms, under `COc1ccc(C2c3cccn3CCN2S(=O)(=O)c2ccccc2[N+](=O)[O-])cc1OC` (configuration not stated) stands 0.355 µM [rising, full curve, poor fit]. The same measure, in the same setting: under `Cc1ccc(C2CCN(C(=S)Nc3cccc(Cl)c3)C2)cc1` (configuration not stated) stands 0.708 µM [rising, full curve]; under `COc1cccc(NC(=O)COC(=O)c2ccccc2SCC(=O)N2CCCC2)c1`, 1.3 µM [rising, full curve, poor fit]; under `O=C(N/N=C/c1nn(-c2ccccc2)cc1-c1ccccc1)c1ccncc1`, 4.11 µM [rising, full curve, poor fit]. Still for that read-out and setting: under `CCc1nc(Nc2cccc(F)c2)c2oc3ccccc3c2n1` stands 0.501 µM [falling, full curve].

Consider `O=c1c2ccccc2nc(-c2ccccc2)n1Cc1ccc(Cl)cc1`, for which, under setting [1], the AC50 is 0.164 µM [rising, full curve, poor fit]. Still for that read-out and setting: the result for `CCc1[nH]nc(C(=O)N/N=C/c2ccncc2)c1C` reads 11.2 µM [falling, single point]; that for `CCOc1ccc(C(=O)CC(NCc2cccs2)C(=O)O)cc1` (configuration not stated), 25.1 µM [falling, single point]. The same measure, in the same setting: under `COc1cc(/C=C2\SC(=O)N(c3ccc(Cl)cc3)C2=O)cc([N+](=O)[O-])c1O` stands 22.4 µM [falling, single point]; under `O=C(CCl)N(CCc1ccccc1)CCc1ccccc1`, 35.5 µM [falling, single point]. On the same count and under the same terms, under `Cc1c(C(=O)NNC(=O)c2ccncc2)oc2ccccc12` stands 11.6 µM [falling, partial curve]; under `COC(=O)c1cccc(COC(=O)c2ccc(N(C)C)cc2)c1`, 4.11 µM [rising, full curve, poor fit]; under `CC(=O)N1N=C(c2ccncc2)OC12CCCCC2`, 7.08 µM [rising, partial curve, poor fit]. On to `CC(C)NC(=O)c1ccc2c(c1)N(CC(=O)NC1CCCCC1)C(=O)C(C)(C)O2`, for which the AC50 under setting [1] was 17.8 µM [rising, partial curve, poor fit].

As to `O=C(OCc1cc(=O)n2c(n1)sc1ccccc12)c1cccc(O)c1`, the concentration at half-maximal activity (AC50) under setting [1] was 1.84 µM [falling, partial curve, poor fit]. The same measure, in the same setting: under `COc1cccc(Cn2c(=O)n(-c3cccc(Cl)c3C)c(=O)c3c4c(sc32)CN(C(C)=O)CC4)c1` stands 0.0891 µM [rising, full curve, poor fit]; under `COc1ccc(-c2nn(-c3ccccc3C)cc2CNCCc2cnc[nH]2)cc1F`, 0.501 µM [rising, full curve, poor fit]. On to `CC1CCC(C(C)C)C(OC(=O)C[n+]2cc(-c3ccc(Cl)cc3)n3c2CCCCC3)C1` (configuration not stated), for which the AC50 under setting [1] is 22.4 µM [falling, partial curve]. With `C/C(=N\NC(=O)CC#N)c1cc2ccccc2oc1=O`, the AC50 under setting [1] is 11.6 µM [falling, partial curve]. With `Cc1ccc(C2=NC(C(F)(F)F)(C(F)(F)F)c3c(n(-c4ccc(F)cc4)c(=O)[nH]c3=O)N2)cc1`, under setting [1], the AC50 was 0.651 µM [rising, full curve, poor fit].

Take `COc1cccc(/C=N/NC(=O)c2nnn(-c3nonc3N)c2-c2cccs2)c1`: the AC50 under setting [1] was 8.91 µM [falling, partial curve]. On the same count and under the same terms, under `Cc1sc2ncnc(OCC(=O)NCc3cccs3)c2c1C` stands 6.51 µM [falling, single point]; under `Cc1ccc(CNC(=O)CCCc2nc3ccccc3s2)cc1`, 29.1 µM [falling, partial curve, poor fit].

Consider `Cc1ccc(-n2ncc3c(NCc4ccc5c(c4)OCO5)ncnc32)c(C)c1`, for which the AC50 under setting [1] was 14.1 µM [falling, partial curve]. The same measure, in the same setting: the result for `COc1ccc(/C=N/NC(=O)C(=O)/C=C2\NC3(CCCC3)Cc3ccccc32)cc1` reads 4.61 µM [rising, full curve, poor fit]. Still for that read-out and setting: the result for `Brc1ccc(/C=N/Nc2ccccn2)cc1` reads 0.112 µM [rising, full curve, poor fit]; that for `COc1ccc(CCN2CC(C(=O)N(C)Cc3cccnc3)CC2=O)cc1OC` (configuration not stated), 20.6 µM [falling, single point]; that for `O=C(c1ccccc1C(F)(F)F)N1CCN(S(=O)(=O)c2ccccc2)CC1`, 35.5 µM [falling, single point]. For `C#CCOc1ccc(/C=N/NC(=O)c2cccnc2)cc1OCC`, the AC50 under setting [2] was 2.82 µM [rising, full curve, poor fit]. Consider `CC(=O)c1cccc(NC(=O)c2cnn(-c3ccccc3)c2C)c1`, for which the AC50 under setting [1] was 35.5 µM [falling, single point]. On the same count and under the same terms, under `CC1CN(c2ncnc3c2cnn3-c2ccc(Cl)cc2)CC(C)O1` (configuration not stated) stands 0.0058 µM [falling, full curve, poor fit]; under `COc1ccc(-c2csc(CCN3N=C(C)CC3=O)n2)cc1`, 15.8 µM [falling, single point]; under `CC(=O)N1CCN(c2ccc(NC(=O)c3ccco3)cc2Cl)CC1`, 8.91 µM [rising, partial curve, poor fit]. Take `CCN(CC(=O)NC(C)(C)C)C(=O)c1ccccc1SCC(=O)NC1CCCCCCC1`: the AC50 under setting [1] is 6.31 µM [falling, partial curve, poor fit].

As for `Cc1[nH]c(=O)c(C#N)c(C)c1Br`, the AC50 under setting [1] was 16.4 µM [rising, partial curve, poor fit]. For the compound `Cc1ccc[n+](-c2[nH]c(=O)sc2/C=N/NC(=O)c2ccccc2[O-])c1`, the AC50 under setting [1] is 16.4 µM [falling, single point]. On to `CCN1C(=O)CSc2ccc(C(=O)NCc3ccccc3OC)cc21`, for which the AC50 under setting [1] was 14.1 µM [falling, partial curve, poor fit].

Turning to `COC(=O)c1c(-c2ccc(C)cc2)csc1NC(=O)C1CC=CCC1C(=O)O` (configuration not stated), the AC50 under setting [2] is 20.6 µM [rising, partial curve, poor fit]. As for `COc1nc2c(C)cccc2cc1-c1noc(-c2ccco2)n1`, the half-maximal activity concentration (AC50) was 0.731 µM [falling, full curve] under setting [1] and 0.651 µM [rising, full curve, poor fit] under setting [2].

Regarding `Cc1ccc(C2=N/C(=C\c3cccc(F)c3)C(=O)O2)cc1`, the AC50 under setting [1] was 0.562 µM [rising, partial curve, poor fit]. Regarding `O=NN(CCc1ccncc1)c1ccc(OCc2ccccc2)cc1`, the half-maximal activity concentration (AC50) under setting [1] was 35.5 µM [falling, single point]. The same measure, in the same setting: under `Cc1c(C(=O)O)sc2nc(/C=C/c3cccc(O)c3)[nH]c(=O)c12` stands 2.24 µM [falling, full curve]; under `CCSc1nnc(NC(=O)NCC(F)(F)F)s1`, 4.61 µM [rising, full curve]. Still for that read-out and setting: under `CNc1nc(SCc2ccccc2Cl)nc2c1CCCC2` stands 16.4 µM [falling, partial curve, poor fit]; under `O=C(c1ccc2c3n(nc2c1)-c1ccc(Cl)cc1CO3)N1CCOCC1`, 12.6 µM [rising, partial curve, poor fit]. In the case of `COc1cc2cc(CCCOC(=O)c3ccc(C(F)(F)F)cc3)oc(=O)c2cc1OC`, the AC50 under setting [1] was 29.1 µM [rising, single point].

`CCN(CC)CC(=O)N1CCCC(C(=O)c2ccccc2OC)C1` (configuration not stated): under setting [1], the concentration at half-maximal activity (AC50) was 6.31 µM [rising, single point]. On the same count and under the same terms, under `FC(F)(F)c1cccc(NC(=S)NNC(=S)Nc2cccc(C(F)(F)F)c2)c1` stands 2.82 µM [rising, partial curve, poor fit]. Still for that read-out and setting: the result for `O=C1C2C3C=CC(CO)(O3)C2C(=O)N1c1ccc(-c2ccccc2)cc1` (configuration not stated) reads 11.2 µM [falling, partial curve]; that for `OC(CC#CCN1CCCC1)(c1ccccc1)c1ccccc1`, 22.4 µM [rising, partial curve, poor fit].

With `OCCCNc1c2ccccc2nc2ccccc12`, the AC50 under setting [2] was 6.31 µM [rising, full curve, poor fit]. For the compound `COc1ccc2c(c1)c1ncn(Cc3ccccn3)c(=O)c1n2C`, the AC50 under setting [1] is 1.12 µM [falling, full curve, poor fit]. In the case of `O=C(COc1ccc(Cl)cc1Br)NCC(c1ccco1)N1CCCC1` (configuration not stated), the AC50 under setting [1] is 20.6 µM [rising, single point].

As to `Cc1ccc(O)c(CNCCNCc2cc(C)ccc2O)c1`, under setting [1], the AC50 is 29.1 µM [falling, single point].

For the compound `CCn1nc(C)cc1C(=O)Sc1cccc(Cl)c1`, the AC50 under setting [1] was 8.91 µM [falling, partial curve, poor fit]. The same measure, in the same setting: under `Cc1ccc2nc(NC3=NCN(Cc4cccnc4)CN3)nc(C)c2c1` stands 16.4 µM [rising, single point]; under `CCN(CC(=O)Nc1ccccc1C(F)(F)F)C(=O)c1ccc2[nH]c3c(c2c1)CC(C)CC3` (configuration not stated), 11.6 µM [rising, partial curve, poor fit].
